Assay results: the supplement of paper PMC10849652
This is one part of the list.

Chains of the proteins cited; added tags and fusions are not shown. Lines headed by an entry give the natural chain unless they say otherwise; changes in a name come on top.
UniProt Q9H0G5: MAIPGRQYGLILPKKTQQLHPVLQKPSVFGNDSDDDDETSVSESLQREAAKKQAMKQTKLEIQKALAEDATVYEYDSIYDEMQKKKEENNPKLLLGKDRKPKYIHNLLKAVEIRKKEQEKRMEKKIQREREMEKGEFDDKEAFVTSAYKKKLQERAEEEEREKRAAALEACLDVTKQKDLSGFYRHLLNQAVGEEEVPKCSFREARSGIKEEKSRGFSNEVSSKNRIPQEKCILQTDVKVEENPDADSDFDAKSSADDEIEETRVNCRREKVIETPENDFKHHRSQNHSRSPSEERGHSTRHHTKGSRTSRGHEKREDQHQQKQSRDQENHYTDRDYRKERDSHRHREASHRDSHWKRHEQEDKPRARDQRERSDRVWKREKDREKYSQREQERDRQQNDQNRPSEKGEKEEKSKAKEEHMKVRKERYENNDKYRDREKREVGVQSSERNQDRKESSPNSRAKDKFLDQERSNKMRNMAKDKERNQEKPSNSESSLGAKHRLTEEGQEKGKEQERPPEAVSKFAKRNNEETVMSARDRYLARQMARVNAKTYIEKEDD
UniProt Q9Y6R0: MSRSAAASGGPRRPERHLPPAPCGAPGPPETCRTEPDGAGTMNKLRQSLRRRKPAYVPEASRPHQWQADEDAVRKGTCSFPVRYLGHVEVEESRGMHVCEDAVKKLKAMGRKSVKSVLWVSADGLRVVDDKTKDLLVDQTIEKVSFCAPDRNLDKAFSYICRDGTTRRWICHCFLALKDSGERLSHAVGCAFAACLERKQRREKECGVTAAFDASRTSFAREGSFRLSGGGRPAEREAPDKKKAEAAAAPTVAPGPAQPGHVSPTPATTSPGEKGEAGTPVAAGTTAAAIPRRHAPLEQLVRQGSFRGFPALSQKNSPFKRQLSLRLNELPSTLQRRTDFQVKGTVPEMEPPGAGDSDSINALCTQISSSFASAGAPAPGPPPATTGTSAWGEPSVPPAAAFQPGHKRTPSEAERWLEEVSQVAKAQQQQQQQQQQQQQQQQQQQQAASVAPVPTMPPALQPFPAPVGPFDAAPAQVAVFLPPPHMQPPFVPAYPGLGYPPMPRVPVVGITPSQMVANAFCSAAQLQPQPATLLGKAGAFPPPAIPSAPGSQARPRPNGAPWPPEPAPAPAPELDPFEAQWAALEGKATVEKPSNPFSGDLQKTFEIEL
UniProt Q9NZJ9: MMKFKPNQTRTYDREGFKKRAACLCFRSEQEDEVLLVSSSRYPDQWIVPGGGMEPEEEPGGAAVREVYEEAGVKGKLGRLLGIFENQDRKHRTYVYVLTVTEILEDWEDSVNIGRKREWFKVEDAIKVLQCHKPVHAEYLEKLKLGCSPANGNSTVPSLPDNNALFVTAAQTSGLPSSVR
UniProt O43809, whole entry, looked up: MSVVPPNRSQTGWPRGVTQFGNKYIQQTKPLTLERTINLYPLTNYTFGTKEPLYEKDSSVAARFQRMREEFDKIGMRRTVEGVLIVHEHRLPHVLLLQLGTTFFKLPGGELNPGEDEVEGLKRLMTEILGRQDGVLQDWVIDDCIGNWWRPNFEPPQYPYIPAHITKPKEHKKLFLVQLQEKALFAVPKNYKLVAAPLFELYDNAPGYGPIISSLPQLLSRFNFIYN
UniProt Q5JPE7: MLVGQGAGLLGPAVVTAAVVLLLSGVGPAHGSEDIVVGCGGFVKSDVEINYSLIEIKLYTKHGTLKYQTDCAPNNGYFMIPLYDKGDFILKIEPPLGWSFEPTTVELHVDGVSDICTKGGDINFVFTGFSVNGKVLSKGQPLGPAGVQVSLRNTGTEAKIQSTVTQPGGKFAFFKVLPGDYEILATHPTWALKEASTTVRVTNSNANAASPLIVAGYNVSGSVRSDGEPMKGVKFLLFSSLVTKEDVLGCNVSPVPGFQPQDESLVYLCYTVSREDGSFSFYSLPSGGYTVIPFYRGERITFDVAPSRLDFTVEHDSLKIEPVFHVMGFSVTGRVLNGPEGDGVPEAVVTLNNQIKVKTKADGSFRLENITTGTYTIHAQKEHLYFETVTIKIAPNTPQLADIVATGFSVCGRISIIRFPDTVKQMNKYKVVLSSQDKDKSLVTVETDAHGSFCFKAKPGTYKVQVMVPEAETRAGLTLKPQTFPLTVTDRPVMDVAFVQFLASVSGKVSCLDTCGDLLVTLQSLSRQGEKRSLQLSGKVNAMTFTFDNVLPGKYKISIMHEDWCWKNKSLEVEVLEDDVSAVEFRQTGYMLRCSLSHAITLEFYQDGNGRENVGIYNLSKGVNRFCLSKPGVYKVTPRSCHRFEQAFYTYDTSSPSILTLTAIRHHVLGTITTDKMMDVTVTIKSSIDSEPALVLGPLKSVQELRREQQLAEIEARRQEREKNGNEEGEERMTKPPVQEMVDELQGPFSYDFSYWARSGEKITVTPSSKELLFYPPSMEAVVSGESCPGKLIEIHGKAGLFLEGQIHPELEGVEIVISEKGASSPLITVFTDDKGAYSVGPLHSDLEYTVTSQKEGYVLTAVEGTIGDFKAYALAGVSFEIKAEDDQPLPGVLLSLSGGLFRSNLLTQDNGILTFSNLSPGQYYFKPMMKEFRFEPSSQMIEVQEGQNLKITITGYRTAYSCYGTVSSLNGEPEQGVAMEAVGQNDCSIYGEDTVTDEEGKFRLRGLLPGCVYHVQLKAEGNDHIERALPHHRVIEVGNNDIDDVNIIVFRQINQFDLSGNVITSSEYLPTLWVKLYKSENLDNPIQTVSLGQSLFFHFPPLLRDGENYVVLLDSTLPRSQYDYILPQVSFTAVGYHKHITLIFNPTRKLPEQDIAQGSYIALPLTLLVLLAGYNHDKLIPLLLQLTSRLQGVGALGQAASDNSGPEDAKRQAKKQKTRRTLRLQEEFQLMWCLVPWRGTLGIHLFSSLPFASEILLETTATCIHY
UniProt A8MXV4: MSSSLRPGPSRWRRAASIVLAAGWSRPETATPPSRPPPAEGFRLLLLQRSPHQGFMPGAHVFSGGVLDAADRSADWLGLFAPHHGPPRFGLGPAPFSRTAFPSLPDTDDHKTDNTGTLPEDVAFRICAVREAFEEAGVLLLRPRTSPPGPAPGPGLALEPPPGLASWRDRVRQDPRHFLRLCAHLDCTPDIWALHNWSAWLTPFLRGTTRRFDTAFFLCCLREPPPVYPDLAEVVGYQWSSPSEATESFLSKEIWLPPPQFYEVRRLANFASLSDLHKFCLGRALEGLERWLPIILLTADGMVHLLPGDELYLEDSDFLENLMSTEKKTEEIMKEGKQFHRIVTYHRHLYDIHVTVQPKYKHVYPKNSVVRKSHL
UniProt O75607: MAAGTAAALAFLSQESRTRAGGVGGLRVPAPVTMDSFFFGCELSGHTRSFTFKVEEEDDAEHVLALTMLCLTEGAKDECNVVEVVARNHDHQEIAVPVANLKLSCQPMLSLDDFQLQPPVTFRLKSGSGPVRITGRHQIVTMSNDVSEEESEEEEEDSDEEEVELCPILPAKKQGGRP
UniProt Q15738: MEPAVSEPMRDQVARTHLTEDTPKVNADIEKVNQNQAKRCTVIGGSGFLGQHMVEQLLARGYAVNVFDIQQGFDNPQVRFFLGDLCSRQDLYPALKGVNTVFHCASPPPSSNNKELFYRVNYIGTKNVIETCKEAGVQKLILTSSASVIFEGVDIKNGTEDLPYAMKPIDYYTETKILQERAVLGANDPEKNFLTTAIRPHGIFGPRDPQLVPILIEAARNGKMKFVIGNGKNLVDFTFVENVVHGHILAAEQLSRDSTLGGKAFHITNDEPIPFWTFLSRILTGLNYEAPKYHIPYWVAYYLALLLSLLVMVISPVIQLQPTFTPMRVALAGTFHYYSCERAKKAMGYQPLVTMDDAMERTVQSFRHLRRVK
UniProt Q9Y5A7: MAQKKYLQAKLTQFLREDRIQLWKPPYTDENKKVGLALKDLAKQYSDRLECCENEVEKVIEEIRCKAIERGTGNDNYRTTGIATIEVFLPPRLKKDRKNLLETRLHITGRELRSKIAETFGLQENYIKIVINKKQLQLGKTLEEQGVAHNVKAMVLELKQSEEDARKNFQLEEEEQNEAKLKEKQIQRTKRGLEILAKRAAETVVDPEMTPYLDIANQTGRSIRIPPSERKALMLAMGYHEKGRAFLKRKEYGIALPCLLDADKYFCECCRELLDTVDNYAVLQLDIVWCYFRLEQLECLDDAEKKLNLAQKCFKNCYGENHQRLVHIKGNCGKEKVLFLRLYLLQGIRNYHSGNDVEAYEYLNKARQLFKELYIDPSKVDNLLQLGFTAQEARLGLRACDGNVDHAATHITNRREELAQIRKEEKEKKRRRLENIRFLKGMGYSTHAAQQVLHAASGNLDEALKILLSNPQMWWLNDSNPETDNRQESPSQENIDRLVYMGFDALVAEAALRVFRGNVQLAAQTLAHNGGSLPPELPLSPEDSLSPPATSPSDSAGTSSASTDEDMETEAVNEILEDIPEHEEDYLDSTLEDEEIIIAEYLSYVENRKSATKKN
UniProt Q9BRJ7: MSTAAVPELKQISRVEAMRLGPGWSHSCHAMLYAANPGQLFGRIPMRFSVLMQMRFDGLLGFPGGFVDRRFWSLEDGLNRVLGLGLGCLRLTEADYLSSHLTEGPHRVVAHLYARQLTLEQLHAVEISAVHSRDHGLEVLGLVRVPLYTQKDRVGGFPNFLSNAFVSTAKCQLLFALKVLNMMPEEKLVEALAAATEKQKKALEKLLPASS
UniProt Q86UY8: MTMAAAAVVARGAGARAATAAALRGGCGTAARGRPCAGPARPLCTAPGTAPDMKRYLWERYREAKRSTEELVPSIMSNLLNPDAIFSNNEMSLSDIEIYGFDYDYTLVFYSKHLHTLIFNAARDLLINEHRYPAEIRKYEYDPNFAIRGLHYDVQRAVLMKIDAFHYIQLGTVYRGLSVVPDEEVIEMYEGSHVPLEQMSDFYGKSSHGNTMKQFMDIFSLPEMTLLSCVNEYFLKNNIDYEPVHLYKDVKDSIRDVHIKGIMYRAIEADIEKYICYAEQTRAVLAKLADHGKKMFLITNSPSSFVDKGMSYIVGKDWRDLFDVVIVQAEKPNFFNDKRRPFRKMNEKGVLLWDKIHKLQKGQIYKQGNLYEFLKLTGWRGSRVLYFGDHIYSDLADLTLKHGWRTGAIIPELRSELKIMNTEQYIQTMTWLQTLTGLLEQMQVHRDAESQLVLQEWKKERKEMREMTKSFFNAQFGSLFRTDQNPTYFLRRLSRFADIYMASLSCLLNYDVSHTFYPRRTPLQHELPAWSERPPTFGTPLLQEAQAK
UniProt Q9Y5Y2: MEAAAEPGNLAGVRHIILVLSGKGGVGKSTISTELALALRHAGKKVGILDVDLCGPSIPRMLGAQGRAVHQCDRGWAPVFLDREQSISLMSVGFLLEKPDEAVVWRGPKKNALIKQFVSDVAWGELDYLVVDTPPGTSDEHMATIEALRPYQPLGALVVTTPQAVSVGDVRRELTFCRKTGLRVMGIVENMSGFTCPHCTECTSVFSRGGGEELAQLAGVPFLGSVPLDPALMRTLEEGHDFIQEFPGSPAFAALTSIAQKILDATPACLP
UniProt P78316: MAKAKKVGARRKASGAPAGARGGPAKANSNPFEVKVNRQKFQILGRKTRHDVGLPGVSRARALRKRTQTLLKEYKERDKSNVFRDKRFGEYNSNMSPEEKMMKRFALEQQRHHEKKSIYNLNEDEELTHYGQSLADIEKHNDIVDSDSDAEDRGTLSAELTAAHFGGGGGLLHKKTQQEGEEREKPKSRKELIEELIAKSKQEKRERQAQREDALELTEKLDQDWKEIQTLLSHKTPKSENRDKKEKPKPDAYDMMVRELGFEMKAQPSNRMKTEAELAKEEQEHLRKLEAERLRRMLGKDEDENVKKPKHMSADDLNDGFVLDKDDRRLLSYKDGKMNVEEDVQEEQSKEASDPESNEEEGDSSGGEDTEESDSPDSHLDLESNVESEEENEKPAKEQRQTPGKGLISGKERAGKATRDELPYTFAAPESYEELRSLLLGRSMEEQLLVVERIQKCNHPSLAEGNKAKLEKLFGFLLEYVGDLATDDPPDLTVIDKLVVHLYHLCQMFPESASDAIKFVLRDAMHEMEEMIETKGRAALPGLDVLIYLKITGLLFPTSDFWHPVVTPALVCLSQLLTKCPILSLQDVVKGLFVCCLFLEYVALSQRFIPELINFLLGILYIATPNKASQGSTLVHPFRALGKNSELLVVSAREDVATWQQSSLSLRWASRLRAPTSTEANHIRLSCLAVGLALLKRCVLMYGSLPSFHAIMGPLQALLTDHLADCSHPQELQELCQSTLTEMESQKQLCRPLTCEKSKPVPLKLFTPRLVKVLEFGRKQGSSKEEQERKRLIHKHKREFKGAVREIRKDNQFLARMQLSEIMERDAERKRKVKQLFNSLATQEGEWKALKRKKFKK

Tests used:
Assay in all cases: log2 fold change, soluble protein after heating vs DMSO (PISA); higher = thermal stabilisation; K562 lysate, 10 uM; active = over 0.2 and 3.5 SD of the protein, either way, in both replicates (recomputed)
[1] = compound: C#Cc1cccc(Nc2ncnc3cc(OCCOC)c(OCCOC)cc23)c1 [erlotinib]
Procedure, shortened: (§1)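 The values are log-two fold changes in thermal stability compared with solvent controls and come from duplicates. They were obtained by TMTpro 16plex LC-MS/MS, with channel sums equalised, on the supernatant after 21,000xg for 90 min. That supernatant came from crude K562 extract at 1 mg/mL protein treated with 10 μM compound for 30 min, heated for 3 min across 48°C-58°C, pooled and brought to 0.5% NP-40 at 4°C.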

[2] = compound: C/C(=N\NC(=O)C1=CC(=CC=C1)S(=O)(=O)N2CCOCC2)/C3=C(C=CC(=C3)Cl)O
Procedure, shortened: as §1

[3] = compound: C1=CC(=CC=C1C2=NC3=C(N2)C=C(C=C3)C(=O)N)OC4=CC=C(C=C4)Cl
Procedure, shortened: as §1

[4] = compound: C1=CC2=C(C=CC(=C2)/C=C\3/C(=O)NC(=NCC4=CC=CS4)S3)N=C1
Procedure, shortened: as §1

[5] = compound: C1=CC2=NC=CN=C2C=C1/C=C/3\C(=O)NC(=O)S3
Procedure, shortened: as §1

[6] = compound: C1=CC=C(C=C1)C2=NC(=C(N2)C3=CC=NC=C3)C4=CC(=C(C=C4)Cl)O
Procedure, shortened: as §1

[7] = compound: C1=CC=C2C(=C1)C3=NNC4=CC=CC(=C43)C2=O
Procedure, shortened: as §1

[8] = compound: C1CCN(C1)C(=O)NC2=CC=CC(=C2)NC3=NC=C(C(=N3)NCCC4=CN=CN4)Br
Procedure, shortened: as §1

[9] = compound: C1CN(CCC1(CC2=CC=C(C=C2)Cl)N)C3=NC=NC4=C3C=CN4
Procedure, shortened: as §1

[10] = compound: C1COCCN1CCN2C3=CC=CC=C3N=C2NC(=O)C4=CC(=CC=C4)[N+](=O)[O-] [IRAK-1-4 Inhibitor I]
Procedure, shortened: as §1

[11] = compound: C=CC(=O)N1CCC[C@@H](n2nc(-c3ccc(Oc4ccccc4)cc3)c3c(N)ncnc32)C1 [ibrutinib]
Procedure, shortened: as §1

[12] = compound: CC(=O)c1cnc2ccc(-c3cc(Cl)c(O)c(Cl)c3)nc2c1N[C@H]1CC[C@H](CN(C)C)CC1
Procedure, shortened: as §1

[13] = compound: CC(C)(C)Cn1c(N)nc2ccc(-c3[nH]c(C(C)(C)C)nc3-c3ccc(F)cc3)nc21 [ralimetinib]
Procedure, shortened: as §1

[14] = compound: CC(C)(O)CC(=O)NCCn1ccc2ncnc(Nc3ccc(Oc4cccc(C(F)(F)F)c4)c(Cl)c3)c21
Procedure, shortened: as §1

[15] = compound: CC(C)C1=C2N=C(C=C(N2N=C1)NCC3=CC=CC=C3)NCCCCCCN
Procedure, shortened: as §1

[16] = compound: CC1=C(C(CC(=O)N1)C2=CC=C(C=C2)C(F)(F)F)C(=O)NC3=C(C=C4C(=C3)C=NN4)F
Procedure, shortened: as §1

[17] = compound: CC1=C(C2=C(C=C1)C(=O)C3=CC=CC=C3N2CCCN)C
Procedure, shortened: as §1

[18] = compound: CC1=C(C=C(C=C1)NC(=O)C2=CC(=CC=C2)C(C)(C)C#N)NC3=CC4=C(C=C3)N=CN(C4=O)C
Procedure, shortened: as §1

[19] = compound: CC1=C(C=C(C=C1)NC(=O)C2=CC(=CC=C2)N(C)C)NC(=O)C3=CC=C(C=C3)O
Procedure, shortened: as §1

[20] = compound: CC1=CC=C(C=C1)SC2=C3C=C(SC3=CN=C2)C(=O)N
Procedure, shortened: as §1

Measured: log2 fold change

NSRP1 (UniProt Q9H0G5)
inactive: [1] -0.021 | [2] -0.04 | [3] -0.006 | [4] 0.02 | [5] -0.021 | [6] 0.028 | [7] 0.027 | [8] -0.01 | [9] -0.003 | [10] 0.012 | [11] 0.075 | [12] -0.005 | [13] -0.025 | [14] -0.014 | [15] 0.002 | [16] 0.005 | [17] -0.021 | [18] 0.011 | [19] 0.007 | [20] -0.001

NUMBL (UniProt Q9Y6R0)
inactive: [1] 0.031 | [2] 0.028 | [3] 0.175 | [4] -0.244 | [5] -0.025 | [6] -0.007 | [7] -0.038 | [8] -0.095 | [9] -0.045 | [10] -0.084 | [11] 0.047 | [12] -0.023 | [13] -0.009 | [14] 0.028 | [15] 0.07 | [16] 0.071 | [17] -0.081 | [18] 0.076 | [19] 0.058 | [20] -0.008

NUDT4 isoform 2 (UniProt Q9NZJ9)
inactive: [1] 0.023 | [2] 0.015 | [3] 0.05 | [4] -0.048 | [5] 0.015 | [6] -0.007 | [7] -0.005 | [8] -0.069 | [9] 0.032 | [10] -0.006 | [11] -0.006 | [12] 0.002 | [13] 0.035 | [14] -0.044 | [15] -0.006 | [16] 0.016 | [17] -0.054 | [18] 0.034 | [19] 0.024 | [20] -0.024

NUDT21 (UniProt O43809)
inactive: [1] 0 | [2] -0.024 | [3] -0.004 | [4] 0.002 | [5] -0.017 | [6] -0.022 | [7] 0.006 | [8] -0.009 | [9] 0.014 | [10] -0.006 | [11] -0.001 | [12] 0.02 | [13] -0.013 | [14] -0.009 | [15] 0.011 | [16] -0.029 | [17] 0.005 | [18] -0.099 | [19] -0.03 | [20] 0

NOMO2 (UniProt Q5JPE7)
inactive: [1] 0 | [2] -0.051 | [3] -0.035 | [4] -0.01 | [5] 0.025 | [6] -0.006 | [7] -0.022 | [8] 0.007 | [9] 0.026 | [10] 0.012 | [11] 0.026 | [12] 0.014 | [13] 0.021 | [14] 0.002 | [15] -0.03 | [16] 0.012 | [17] -0.002 | [18] 0.019 | [19] -0.005 | [20] 0.006

NUDT19 (UniProt A8MXV4)
inactive: [1] -0.007 | [2] 0.056 | [3] 0.002 | [4] -0.021 | [5] 0.037 | [6] 0 | [7] 0.005 | [8] 0.013 | [9] -0.003 | [10] 0.02 | [11] -0.01 | [12] 0.133 | [13] 0.024 | [14] 0.025 | [15] -0.033 | [16] 0 | [17] 0.029 | [18] -0.002 | [19] -0.007 | [20] -0.016

NPM3 (UniProt O75607)
inactive: [1] 0.023 | [2] -0.047 | [3] 0.034 | [4] 0.019 | [5] -0.059 | [6] -0.013 | [7] 0.025 | [8] -0.004 | [9] 0.053 | [10] -0.028 | [11] 0.038 | [12] 0.03 | [13] 0.029 | [14] -0.077 | [15] 0.018 | [16] 0.048 | [17] -0.03 | [18] 0.069 | [19] 0.018 | [20] -0.037

NUCB2 (UniProt P80303)
inactive: [1] -0.003 | [2] 0.018 | [3] 0.014 | [4] -0.018 | [5] 0.011 | [6] -0.015 | [7] -0.017 | [8] 0.003 | [9] 0.003 | [10] 0.007 | [11] 0.025 | [12] 0.002 | [13] -0.023 | [14] 0.01 | [15] 0.009 | [16] 0.04 | [17] -0.006 | [18] 0 | [19] -0.015 | [20] -0.014

NSDHL (UniProt Q15738)
inactive: [1] 0.007 | [2] 0.119 | [3] -0.047 | [4] 0 | [5] 0.026 | [6] -0.002 | [7] 0.014 | [8] -0.043 | [9] 0.037 | [10] 0.057 | [11] 0.063 | [12] -0.009 | [13] -0.021 | [14] 0.005 | [15] -0.01 | [16] -0.006 | [17] 0.007 | [18] -0.013 | [19] -0.05 | [20] -0.006

NUB1 (UniProt Q9Y5A7)
inactive: [1] 0.049 | [2] 0.055 | [3] -0.003 | [4] -0.015 | [5] 0.002 | [6] 0.054 | [7] 0.023 | [8] -0.022 | [9] -0.023 | [10] -0.02 | [11] -0.001 | [12] 0.022 | [13] -0.003 | [14] 0.018 | [15] -0.027 | [16] 0.014 | [17] -0.009 | [18] -0.028 | [19] 0.008 | [20] 0.02

NUDT16L1 (UniProt Q9BRJ7)
inactive: [1] 0.035 | [2] -0.007 | [3] 0.011 | [4] 0.027 | [5] -0.052 | [6] -0.037 | [7] -0.027 | [8] 0.003 | [9] -0.045 | [10] -0.043 | [11] 0.007 | [12] 0.014 | [13] 0.009 | [14] -0.063 | [15] 0.024 | [16] 0.023 | [17] 0.012 | [18] 0.031 | [19] 0.018 | [20] -0.01

NUMB (UniProt P49757)
inactive: [1] -0.029 | [2] 0.01 | [3] 0.044 | [4] -0.052 | [5] -0.009 | [6] -0.009 | [7] -0.029 | [8] -0.107 | [9] -0.043 | [10] 0.022 | [11] 0.03 | [12] 0.005 | [13] 0.021 | [14] -0.055 | [15] 0.003 | [16] -0.007 | [17] -0.015 | [18] 0.081 | [19] 0.004 | [20] -0.005

Copied from above (2 entries):
NUMBL (UniProt Q9Y6R0)
inactive: [1] 0.031 | [2] 0.028 | [3] 0.175 | [4] -0.244 | [5] -0.025 | [6] -0.007 | [7] -0.038 | [8] -0.095 | [9] -0.045 | [10] -0.084 | [11] 0.047 | [12] -0.023 | [13] -0.009 | [14] 0.028 | [15] 0.07 | [16] 0.071 | [17] -0.081 | [18] 0.076 | [19] 0.058 | [20] -0.008

NUDT4 isoform 2 (UniProt Q9NZJ9)
inactive: [1] 0.023 | [2] 0.015 | [3] 0.05 | [4] -0.048 | [5] 0.015 | [6] -0.007 | [7] -0.005 | [8] -0.069 | [9] 0.032 | [10] -0.006 | [11] -0.006 | [12] 0.002 | [13] 0.035 | [14] -0.044 | [15] -0.006 | [16] 0.016 | [17] -0.054 | [18] 0.034 | [19] 0.024 | [20] -0.024

Continuation.

NT5DC3 (UniProt Q86UY8)
inactive: [1] -0.011 | [2] -0.032 | [3] 0.029 | [4] -0.007 | [5] 0.017 | [6] 0.003 | [7] 0.011 | [8] 0.01 | [9] 0.024 | [10] 0.011 | [11] -0.042 | [12] 0.019 | [13] 0.013 | [14] -0.048 | [15] -0.012 | [16] -0.032 | [17] -0.013 | [18] -0.03 | [19] 0.019 | [20] 0.009

NT5C2 (UniProt P49902)
inactive: [1] 0.007 | [2] 0.015 | [3] -0.026 | [4] 0.015 | [5] -0.001 | [6] -0.014 | [7] -0.007 | [8] -0.001 | [9] 0.01 | [10] 0.059 | [11] 0.016 | [12] 0.028 | [13] -0.009 | [14] -0.015 | [15] -0.045 | [16] -0.019 | [17] 0.012 | [18] 0.021 | [19] -0.005 | [20] 0.004

NUBP2 (UniProt Q9Y5Y2)
inactive: [1] -0.013 | [2] -0.057 | [3] 0.01 | [4] 0.025 | [5] 0.024 | [6] -0.039 | [7] 0.011 | [8] -0.008 | [9] -0.014 | [10] 0.064 | [11] 0 | [12] 0.043 | [13] -0.008 | [14] -0.013 | [15] 0.043 | [16] 0.033 | [17] 0.015 | [18] 0.033 | [19] 0.002 | [20] 0.015

NOP14 (UniProt P78316)
inactive: [1] 0.047 | [2] 0.052 | [3] -0.058 | [4] 0.005 | [5] -0.036 | [6] -0.04 | [7] 0.004 | [8] 0.022 | [9] -0.004 | [10] -0.009 | [11] 0.011 | [12] -0.016 | [13] 0.025 | [14] 0.041 | [15] 0.017 | [16] 0.02 | [17] -0.024 | [18] -0.003 | [19] 0.01 | [20] 0.005
